# This is one part of the list. Only a few entries rise above the background.
# B1: 3S41.1 (protein)
# chain 1: EVQLVESGGGLVQPGGSLRLSCATSGFTFRNYWMYWFRQAPGKGLDWVSSISDSSSNTFYSDSVKGRFTISRDNAKNTLYLQMNSLRAEDTAVYYCARRPIAAATGVYWYFDLWGPGTPITVSS
# chain 2: EIVMTQSPATLSLSPGERATLSCRASQNIGSNLAWYQQKPGRAPKLLIYDASSRATGIPDRFSASGSGTDFTLTISSLEPEDVGVYYCQQYNNWKIFGPGTKLEIK
# What was measured:
# Experiment in all cases: fluorescence intensity of antibody binding to polysaccharide-coupled beads; higher = stronger binding
# [1] = biological target: pneumococcal polysaccharide Pn19B
# [2] = biological target: pneumococcal polysaccharide Pn19C
# [3] = biological target: pneumococcal polysaccharide Pn19F
# [4] = biological target: pneumococcal polysaccharide Pn2
# [5] = biological target: pneumococcal polysaccharide Pn20A
# [6] = biological target: pneumococcal polysaccharide Pn20B
# [7] = biological target: pneumococcal polysaccharide Pn21
# [8] = biological target: pneumococcal polysaccharide Pn22A
# [9] = biological target: pneumococcal polysaccharide Pn22F
# [10] = biological target: pneumococcal polysaccharide Pn23A
# [11] = biological target: pneumococcal polysaccharide Pn23B
# [12] = biological target: pneumococcal polysaccharide Pn23F
# [13] = biological target: pneumococcal polysaccharide Pn24A
# [14] = antibody concentration 0.1 ng/mL
# [15] = antibody concentration 0.534724 ng/mL
# [16] = antibody concentration 2.8593 ng/mL
# [17] = antibody concentration 15.2894 ng/mL
# [18] = antibody concentration 81.7561 ng/mL
# [19] = antibody concentration 437.17 ng/mL
# [20] = antibody concentration 2337.65 ng/mL
binder,measurement,setting,value
B1,fluorescence intensity,[1]; [14],29.8 MFI
same,fluorescence intensity,[1]; [15],30 MFI
same,fluorescence intensity,[1]; [16],27.5 MFI
same,fluorescence intensity,[1]; [17],27 MFI
same,fluorescence intensity,[1]; [18],28 MFI
same,fluorescence intensity,[1]; [19],30.8 MFI
same,fluorescence intensity,[1]; [20],36 MFI
same,fluorescence intensity,[2]; [14],25 MFI
same,fluorescence intensity,[2]; [15],24.8 MFI
same,fluorescence intensity,[2]; [16],26.2 MFI
same,fluorescence intensity,[2]; [17],25 MFI
same,fluorescence intensity,[2]; [18],25 MFI
same,fluorescence intensity,[2]; [19],26.5 MFI
same,fluorescence intensity,[2]; [20],31 MFI
same,fluorescence intensity,[3]; [14],25 MFI
same,fluorescence intensity,[3]; [15],25 MFI
same,fluorescence intensity,[3]; [16],25.8 MFI
same,fluorescence intensity,[3]; [17],25.5 MFI
same,fluorescence intensity,[3]; [18],24.2 MFI
same,fluorescence intensity,[3]; [19],26 MFI
same,fluorescence intensity,[3]; [20],29.8 MFI
same,fluorescence intensity,[4]; [14],18.8 MFI
same,fluorescence intensity,[4]; [15],20 MFI
same,fluorescence intensity,[4]; [16],20.5 MFI
same,fluorescence intensity,[4]; [17],18.8 MFI
same,fluorescence intensity,[4]; [18],19.5 MFI
same,fluorescence intensity,[4]; [19],21.5 MFI
same,fluorescence intensity,[4]; [20],23.5 MFI
same,fluorescence intensity,[5]; [14],23 MFI
same,fluorescence intensity,[5]; [15],22 MFI
same,fluorescence intensity,[5]; [16],23 MFI
same,fluorescence intensity,[5]; [17],22.5 MFI
same,fluorescence intensity,[5]; [18],23.8 MFI
same,fluorescence intensity,[5]; [19],22 MFI
same,fluorescence intensity,[5]; [20],28 MFI
same,fluorescence intensity,[6]; [14],23.8 MFI
same,fluorescence intensity,[6]; [15],24 MFI
same,fluorescence intensity,[6]; [16],23.5 MFI
same,fluorescence intensity,[6]; [17],23 MFI
same,fluorescence intensity,[6]; [18],23 MFI
same,fluorescence intensity,[6]; [19],23 MFI
same,fluorescence intensity,[6]; [20],26 MFI
same,fluorescence intensity,[7]; [14],20 MFI
same,fluorescence intensity,[7]; [15],19.5 MFI
same,fluorescence intensity,[7]; [16],18.8 MFI
same,fluorescence intensity,[7]; [17],19 MFI
same,fluorescence intensity,[7]; [18],20 MFI
same,fluorescence intensity,[7]; [19],19 MFI
same,fluorescence intensity,[7]; [20],20.5 MFI
same,fluorescence intensity,[8]; [14],22.2 MFI
same,fluorescence intensity,[8]; [15],20.8 MFI
same,fluorescence intensity,[8]; [16],22.8 MFI
same,fluorescence intensity,[8]; [17],22.2 MFI
same,fluorescence intensity,[8]; [18],23 MFI
same,fluorescence intensity,[8]; [19],22 MFI
same,fluorescence intensity,[8]; [20],25.5 MFI
same,fluorescence intensity,[9]; [14],32.8 MFI
same,fluorescence intensity,[9]; [15],30.5 MFI
same,fluorescence intensity,[9]; [16],29.8 MFI
same,fluorescence intensity,[9]; [17],31 MFI
same,fluorescence intensity,[9]; [18],32.8 MFI
same,fluorescence intensity,[9]; [19],30.8 MFI
same,fluorescence intensity,[9]; [20],33 MFI
same,fluorescence intensity,[10]; [14],25.5 MFI
same,fluorescence intensity,[10]; [15],25 MFI
same,fluorescence intensity,[10]; [16],26.2 MFI
same,fluorescence intensity,[10]; [17],25.5 MFI
same,fluorescence intensity,[10]; [18],28 MFI
same,fluorescence intensity,[10]; [19],27.5 MFI
same,fluorescence intensity,[10]; [20],37.5 MFI
same,fluorescence intensity,[11]; [14],29.2 MFI
same,fluorescence intensity,[11]; [15],29.5 MFI
same,fluorescence intensity,[11]; [16],29 MFI
same,fluorescence intensity,[11]; [17],33.8 MFI
same,fluorescence intensity,[11]; [18],28.5 MFI
same,fluorescence intensity,[11]; [19],32 MFI
same,fluorescence intensity,[11]; [20],32.5 MFI
same,fluorescence intensity,[12]; [14],18 MFI
same,fluorescence intensity,[12]; [15],18.2 MFI
same,fluorescence intensity,[12]; [16],18 MFI
same,fluorescence intensity,[12]; [17],20 MFI
same,fluorescence intensity,[12]; [18],18.5 MFI
same,fluorescence intensity,[12]; [19],19 MFI
same,fluorescence intensity,[12]; [20],23 MFI
same,fluorescence intensity,[13]; [14],15 MFI
same,fluorescence intensity,[13]; [15],16.5 MFI
same,fluorescence intensity,[13]; [16],15 MFI
same,fluorescence intensity,[13]; [17],16 MFI
same,fluorescence intensity,[13]; [18],16 MFI
same,fluorescence intensity,[13]; [19],16 MFI

# Part of the list above in a different format:
binder | measurement | setting | value
B1 | fluorescence intensity | [9]; [14] | 32.8 MFI
same | fluorescence intensity | [9]; [15] | 30.5 MFI
same | fluorescence intensity | [9]; [16] | 29.8 MFI
same | fluorescence intensity | [9]; [17] | 31 MFI
same | fluorescence intensity | [9]; [18] | 32.8 MFI

# Reference: the supplement of paper PMC11438910
